The record followed here is PMC10397291, “Molecular pathway and structural mechanism of human oncochannel TRPV6 inhibition by the phytocannabinoid tetrahydrocannabivarin” (Nature Communications, 2023).

This experiment addresses T1, T567A mutant hTRPV6 (Homo sapiens, UniProt Q9H1D0, T607A).
T1 construct: Full-length wild-type or mutant human TRPV6 was expressed in HEK 293S cells as described above; expressed in transfected cells; host or cells: HEK 293S GnTI- (baculovirus/BacMam transduction)
T1 sequence (Q9H1D0 41-765 T607A limits assumed): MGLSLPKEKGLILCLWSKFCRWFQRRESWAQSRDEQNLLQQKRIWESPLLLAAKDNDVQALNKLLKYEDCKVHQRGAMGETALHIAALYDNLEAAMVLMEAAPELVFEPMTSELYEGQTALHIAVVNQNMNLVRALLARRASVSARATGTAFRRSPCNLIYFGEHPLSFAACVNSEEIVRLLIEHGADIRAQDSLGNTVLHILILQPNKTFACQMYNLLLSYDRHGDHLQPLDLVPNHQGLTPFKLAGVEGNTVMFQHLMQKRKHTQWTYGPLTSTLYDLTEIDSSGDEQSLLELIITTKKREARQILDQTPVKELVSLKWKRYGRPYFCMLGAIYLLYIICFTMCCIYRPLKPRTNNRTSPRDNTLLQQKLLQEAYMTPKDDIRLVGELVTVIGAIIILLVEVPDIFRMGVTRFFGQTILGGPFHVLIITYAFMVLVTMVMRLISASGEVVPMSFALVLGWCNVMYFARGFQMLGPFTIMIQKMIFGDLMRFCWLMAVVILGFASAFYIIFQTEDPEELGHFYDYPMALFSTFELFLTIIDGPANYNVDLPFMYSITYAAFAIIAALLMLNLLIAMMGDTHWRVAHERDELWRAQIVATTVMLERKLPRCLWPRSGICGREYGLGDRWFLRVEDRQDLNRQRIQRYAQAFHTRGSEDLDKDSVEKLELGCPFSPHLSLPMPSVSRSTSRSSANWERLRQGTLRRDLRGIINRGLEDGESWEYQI
Kind of experiment: Fura-2 AM Ca2+ uptake, T567A mutant hTRPV6. Type of experiment: cell-based. As to conditions: replicates.

Several values for one entry are separate records, joined by “and”; a condition that tells them apart may be missing. Equal entries are not always repeated. The source gives many values for each of these; only a part stands here.

With `CCCc1cc(O)c2c(c1)OC(C)(C)[C@@H]1CCC(C)=C[C@@H]21` [THCV, tetrahydrocannabivarin], the “change in F340/F380 evoked by 10 mM Ca2+” value (1 μM THCV) is 1.055 and 1.072 and 1.066; the “change in F340/F380 evoked by 10 mM Ca2+” value (3 μM THCV) was 1.140 and 1.055 and 0.900 and 0.960; the “change in F340/F380 evoked by 10 mM Ca2+” value (10 μM THCV) was 0.758 and 0.727 and 0.672 and 0.689; the “change in F340/F380 evoked by 10 mM Ca2+” value (30 μM THCV) was 0.515 and 0.510 and 0.506 and 0.585; the “change in F340/F380 evoked by 10 mM Ca2+” value (100 μM THCV) was 0.601 and 0.585 and 0.580 and 0.569.
